At least one compound was matched to its structure with a doubt left.
System: MDA-MB-231 breast cancer cells
Test: Cell growth and cell death of MDA-MB-231 cells after sequential MSA / Zebularine treatment (digital images)
Assay type: cell-based
Details: images 48 hours after new medium replacement
Experimental: (§1) FIG. 8 provides a photographic representation of results showing a synergistic effect of DNA methylation inhibitors in combination with DNA methylation inducers/promoters on massive cancer cell death. Sequential treatment of MDA-MB-231 breast cancer cells with methylseleninic acid (MSA, a DNA methylation inducer/promoter) for 48 hours and Zebularine (a DNA methylation inhibitor) for 24 hours alone or in combination as shown. Growth medium with drugs was replaced with complete new medium without drugs 24 hour after Zebularine treatment. Images were then taken using a digital camera 48 hours after new medium replacement.
as §1, with “Sequential” for “FIG. 8 provides a photographic representation of results showing a synergistic effect of DNA methylation inhibitors in combination with DNA methylation inducers/promoters on massive cancer cell death. Sequential”

## O=c1ncccn1[C@@H]1O[C@H](CO)[C@@H](O)[C@H]1O [Zebularine]
MSA 48 hours, Zebularine 24 hours, alone
  cell growth inhibition: only moderately inhibit cell growth
Alone or sequential combination (MSA then Zebularine)
  induction of cell death: without induction of cell death

Reference: patent US8043815B2, “Methods for analysis of PDEF and survivin as interconnected cancer biomarkers and targets for personalized medicine” (Health Research, Inc., priority 2007, dated 2011)
